According to patent US20220010008A1:
Results are given in words; binding and its absence hold for the method and conditions named. Some results given as binding are weak or reduced against the parent protein; the word gives no strength.

T1: mouse IL-5 (mouse) (UniProt P04401)
T1 sequence (looked up): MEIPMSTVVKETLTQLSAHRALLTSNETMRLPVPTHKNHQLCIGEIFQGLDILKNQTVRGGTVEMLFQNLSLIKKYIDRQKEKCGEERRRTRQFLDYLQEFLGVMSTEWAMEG


What follows are binders tested against T1, mouse IL-5 (mouse) (assay: ELISA).

Binder | binding
102A2E11B6 (murine hybridoma antibody) (antibody, V domains shown) VH: QVQLRQSGPGLVQPSQSLSITCTVSGFSLTSYGVHWVRQSPGKGLEWLGVIWSGGSTDYNAVFMSRLSISKDSSKSQVFFKMNSLQTDDTAIYYCARNRYVLDYWGQGTSVTVSS VL: DIVMTQSPSSLSVSAGERVTMRCKSSQSLLTSGDQKNHLAWYQQKPGQPPKLLIYGASTRESGVPDRFTGSGSGTDFTLTITSVQAEDLAVYYCQNDHSFPLTFGAGTKLELK | binds
69F2F3 (murine hybridoma antibody) (antibody, V domains shown) VH: QVQLKQSGPGLVQPSQSLSITCTVSGFSLSNYGVHWVRQSPGKGLEWLGVIWSGGSTDYNAAFKSRLSITKDNSKSQVVFRMNSLQTDDTATYYCARNKDFLDYWGQGTKFTVSS VL: DIVMTQSPSSLTVTAGEKVTMTCKSSQGLLNSGNQKNYLTWYQQKPGQPPKLLIYWASTRESGVPDRFTGSGSGTDFTLTISSVQAEDLAVYYCQNDYHFPLTFGAGTKLELK | binds
154F10G8 mouse-human chimeric antibody (antibody, human IgG4, V domains shown) VH: QVQLQQPGAELVKPGASVKLSCKASGYTFTSYWITWVKQRPGQGLEWIGDIYPGSGSTFYNEKFKSEATLTVDTSSSTAYMQLSSLTSEDSAVFYCSTETTLGYWGQGTTLTVSS VL: DVLMTQTPLSLPVSLGDQASISCRSSQSIVHNNGNTYLEWYLQKPGQSPKLLIYKVSNRFSGVPDRFSGSGSGTDFTLKISRVEAEDLGVYYCFQGSHVPFTFGSGTKLEIK | binds

The remaining lines, values ahead:

binding | Binder
binds | 102A2E11B6 mouse-human chimeric antibody (antibody, human IgG4, V domains shown) VH: QVQLRQSGPGLVQPSQSLSITCTVSGFSLTSYGVHWVRQSPGKGLEWLGVIWSGGSTDYNAVFMSRLSISKDSSKSQVFFKMNSLQTDDTAIYYCARNRYVLDYWGQGTSVTVSS VL: DIVMTQSPSSLSVSAGERVTMRCKSSQSLLTSGDQKNHLAWYQQKPGQPPKLLIYGASTRESGVPDRFTGSGSGTDFTLTITSVQAEDLAVYYCQNDHSFPLTFGAGTKLELK
binds | 69F2F3 mouse-human chimeric antibody (antibody, human IgG4, V domains shown) VH: QVQLKQSGPGLVQPSQSLSITCTVSGFSLSNYGVHWVRQSPGKGLEWLGVIWSGGSTDYNAAFKSRLSITKDNSKSQVVFRMNSLQTDDTATYYCARNKDFLDYWGQGTKFTVSS VL: DIVMTQSPSSLTVTAGEKVTMTCKSSQGLLNSGNQKNYLTWYQQKPGQPPKLLIYWASTRESGVPDRFTGSGSGTDFTLTISSVQAEDLAVYYCQNDYHFPLTFGAGTKLELK
binds | 154F10G8 (murine hybridoma antibody) (antibody, V domains shown) VH: QVQLQQPGAELVKPGASVKLSCKASGYTFTSYWITWVKQRPGQGLEWIGDIYPGSGSTFYNEKFKSEATLTVDTSSSTAYMQLSSLTSEDSAVFYCSTETTLGYWGQGTTLTVSS VL: DVLMTQTPLSLPVSLGDQASISCRSSQSIVHNNGNTYLEWYLQKPGQSPKLLIYKVSNRFSGVPDRFSGSGSGTDFTLKISRVEAEDLGVYYCFQGSHVPFTFGSGTKLEIK
